The target of this assay is T1, vascular endothelial cadherin (human (endogenous in HUVEC)), P33151.
T1 chain: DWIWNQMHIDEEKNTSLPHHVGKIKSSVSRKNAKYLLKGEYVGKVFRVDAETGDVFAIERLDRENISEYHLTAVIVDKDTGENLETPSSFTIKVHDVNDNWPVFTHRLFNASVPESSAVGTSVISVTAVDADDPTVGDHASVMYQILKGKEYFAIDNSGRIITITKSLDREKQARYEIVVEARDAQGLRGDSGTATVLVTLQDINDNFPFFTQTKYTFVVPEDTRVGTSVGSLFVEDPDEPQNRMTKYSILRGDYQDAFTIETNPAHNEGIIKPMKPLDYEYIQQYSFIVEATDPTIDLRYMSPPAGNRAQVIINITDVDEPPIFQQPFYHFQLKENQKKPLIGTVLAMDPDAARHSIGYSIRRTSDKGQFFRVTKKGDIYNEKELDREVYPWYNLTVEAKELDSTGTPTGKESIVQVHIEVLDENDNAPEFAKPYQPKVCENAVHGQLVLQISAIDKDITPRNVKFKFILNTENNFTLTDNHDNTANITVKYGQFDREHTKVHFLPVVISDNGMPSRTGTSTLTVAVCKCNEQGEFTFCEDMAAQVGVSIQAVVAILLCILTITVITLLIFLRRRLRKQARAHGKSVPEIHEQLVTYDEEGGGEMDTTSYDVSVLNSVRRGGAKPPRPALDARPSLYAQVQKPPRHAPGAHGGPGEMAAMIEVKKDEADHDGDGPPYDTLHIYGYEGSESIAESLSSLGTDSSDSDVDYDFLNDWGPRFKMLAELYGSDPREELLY
In words: co-IP; HUVEC lysed in RIPA buffer; VE-cad antibody and protein A-agarose, overnight at 4°C; blot for β-catenin and VE-cad; mIgG as control; control cells, also cells overexpressing DN-PKC-β, DN-PKC-α or DN-PKC-δ with high glucose (Figures 1C, 3D). Particulars: remark: other sources report otherwise.

Results are given in words; binding and its absence hold for the method and conditions named. Binding seen in cells or lysates may run through a third protein. Some results given as binding are weak or reduced against the parent protein; the word gives no strength.

B1: β-catenin, P35222 1-781 (protein)
chain: MATQADLMELDMAMEPDRKAAVSHWQQQSYLDSGIHSGATTTAPSLSGKGNPEEEDVDTSQVLYEWEQGFSQSFTQEQVADIDGQYAMTRAQRVRAAMFPETLDEGMQIPSTQFDAAHPTNVQRLAEPSQMLKHAVVNLINYQDDAELATRAIPELTKLLNDEDQVVVNKAAVMVHQLSKKEASRHAIMRSPQMVSAIVRTMQNTNDVETARCTAGTLHNLSHHREGLLAIFKSGGIPALVKMLGSPVDSVLFYAITTLHNLLLHQEGAKMAVRLAGGLQKMVALLNKTNVKFLAITTDCLQILAYGNQESKLIILASGGPQALVNIMRTYTYEKLLWTTSRVLKVLSVCSSNKPAIVEAGGMQALGLHLTDPSQRLVQNCLWTLRNLSDAATKQEGMEGLLGTLVQLLGSDDINVVTCAAGILSNLTCNNYKNKMMVCQVGGIEALVRTVLRAGDREDITEPAICALRHLTSRHQEAEMAQNAVRLHYGLPVVVKLLHPPSHWPLIKATVGLIRNLALCPANHAPLREQGAIPRLVQLLVRAHQDTQRRTSMGGTQQQFVEGVRMEEIVEGCTGALHILARDVHNRIVIRGLNTIPLFVQLLYSPIENIQRVAAGVLCELAQDKEAAEAIEAEGATAPLTELLHSRNEGVATYAAAVLFRMSEDKPQDYKKRLSVELTSSLFRTEPMAWNETADLGLDIGAQGEPLGYRQDDPSYRSFHSGGYGQDALGMDPMMEHEMGGHHPGADYPVDGLPDLGHAQDLMDGLPPGDSNQLAWFDTDL
B1: the binding result is “binds”.

For the origin of these results see paper PMC5674975.
